# Results of single-concentration screens

Chains of the proteins cited; added tags and fusions are not shown. Residues count along the entry.
UniProt P9WPC5, whole entry: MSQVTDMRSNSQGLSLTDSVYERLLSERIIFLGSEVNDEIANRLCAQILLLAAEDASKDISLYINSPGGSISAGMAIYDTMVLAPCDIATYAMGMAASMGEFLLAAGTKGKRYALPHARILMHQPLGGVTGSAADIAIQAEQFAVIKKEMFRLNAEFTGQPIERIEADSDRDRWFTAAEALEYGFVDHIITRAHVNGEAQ
UniProt P9WPC3, whole entry partner: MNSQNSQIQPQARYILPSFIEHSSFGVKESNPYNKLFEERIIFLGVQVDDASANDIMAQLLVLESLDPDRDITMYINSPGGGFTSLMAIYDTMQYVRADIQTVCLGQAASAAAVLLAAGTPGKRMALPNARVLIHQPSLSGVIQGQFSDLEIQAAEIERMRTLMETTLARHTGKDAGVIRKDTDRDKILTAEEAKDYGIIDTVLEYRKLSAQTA
UniProt P9WFT3, whole entry: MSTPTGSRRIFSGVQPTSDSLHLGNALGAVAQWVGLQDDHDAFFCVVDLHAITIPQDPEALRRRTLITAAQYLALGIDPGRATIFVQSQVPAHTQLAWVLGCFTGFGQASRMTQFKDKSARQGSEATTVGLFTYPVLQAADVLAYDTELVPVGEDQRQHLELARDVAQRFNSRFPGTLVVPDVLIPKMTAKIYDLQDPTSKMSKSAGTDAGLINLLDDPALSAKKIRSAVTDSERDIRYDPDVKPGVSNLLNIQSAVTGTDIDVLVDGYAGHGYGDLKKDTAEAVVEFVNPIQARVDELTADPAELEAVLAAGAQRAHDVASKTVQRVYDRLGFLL
UniProt I6X8D2, whole entry: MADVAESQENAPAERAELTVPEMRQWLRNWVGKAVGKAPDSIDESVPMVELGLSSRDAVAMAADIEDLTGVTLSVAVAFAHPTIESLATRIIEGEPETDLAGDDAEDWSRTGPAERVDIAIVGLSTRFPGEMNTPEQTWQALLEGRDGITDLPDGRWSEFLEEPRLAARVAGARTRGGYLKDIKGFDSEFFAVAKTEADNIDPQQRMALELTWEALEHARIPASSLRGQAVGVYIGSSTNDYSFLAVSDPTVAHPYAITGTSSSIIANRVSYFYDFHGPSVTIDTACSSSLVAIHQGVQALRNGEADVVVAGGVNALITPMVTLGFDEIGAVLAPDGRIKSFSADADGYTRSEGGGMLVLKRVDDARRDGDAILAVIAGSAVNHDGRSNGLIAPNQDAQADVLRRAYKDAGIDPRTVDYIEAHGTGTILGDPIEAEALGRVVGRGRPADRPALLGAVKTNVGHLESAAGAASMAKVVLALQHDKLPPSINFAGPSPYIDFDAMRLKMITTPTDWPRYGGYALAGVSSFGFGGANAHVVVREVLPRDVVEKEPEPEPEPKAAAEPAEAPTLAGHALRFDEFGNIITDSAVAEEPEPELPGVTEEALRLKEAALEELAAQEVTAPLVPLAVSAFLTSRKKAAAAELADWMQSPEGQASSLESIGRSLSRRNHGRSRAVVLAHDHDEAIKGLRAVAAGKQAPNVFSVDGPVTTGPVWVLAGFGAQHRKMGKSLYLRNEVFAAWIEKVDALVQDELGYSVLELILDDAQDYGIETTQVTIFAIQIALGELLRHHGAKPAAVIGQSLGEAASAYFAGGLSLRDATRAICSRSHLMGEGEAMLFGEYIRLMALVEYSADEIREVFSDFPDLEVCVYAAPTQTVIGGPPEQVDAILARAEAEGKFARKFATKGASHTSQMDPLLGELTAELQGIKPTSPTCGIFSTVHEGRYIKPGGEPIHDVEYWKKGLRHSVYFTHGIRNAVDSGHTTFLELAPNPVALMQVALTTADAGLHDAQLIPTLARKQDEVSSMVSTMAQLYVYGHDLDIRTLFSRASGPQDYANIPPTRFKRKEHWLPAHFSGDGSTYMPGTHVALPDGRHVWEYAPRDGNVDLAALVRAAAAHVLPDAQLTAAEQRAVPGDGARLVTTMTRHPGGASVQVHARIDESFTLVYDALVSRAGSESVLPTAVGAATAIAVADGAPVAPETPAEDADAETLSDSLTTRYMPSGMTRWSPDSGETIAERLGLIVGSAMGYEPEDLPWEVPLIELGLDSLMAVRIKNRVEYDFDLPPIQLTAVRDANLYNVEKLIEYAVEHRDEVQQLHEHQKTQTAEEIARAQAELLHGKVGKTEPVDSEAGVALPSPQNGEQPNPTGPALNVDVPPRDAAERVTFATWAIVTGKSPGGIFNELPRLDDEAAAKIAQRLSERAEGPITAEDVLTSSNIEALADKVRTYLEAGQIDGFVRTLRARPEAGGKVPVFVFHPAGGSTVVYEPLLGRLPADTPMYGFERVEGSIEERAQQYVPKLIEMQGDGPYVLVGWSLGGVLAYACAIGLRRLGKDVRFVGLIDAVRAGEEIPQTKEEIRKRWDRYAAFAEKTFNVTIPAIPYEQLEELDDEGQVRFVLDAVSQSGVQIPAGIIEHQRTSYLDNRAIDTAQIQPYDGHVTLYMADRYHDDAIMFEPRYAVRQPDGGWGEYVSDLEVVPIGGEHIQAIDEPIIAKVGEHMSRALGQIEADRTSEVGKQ
UniProt Q8IDJ8, 1-583: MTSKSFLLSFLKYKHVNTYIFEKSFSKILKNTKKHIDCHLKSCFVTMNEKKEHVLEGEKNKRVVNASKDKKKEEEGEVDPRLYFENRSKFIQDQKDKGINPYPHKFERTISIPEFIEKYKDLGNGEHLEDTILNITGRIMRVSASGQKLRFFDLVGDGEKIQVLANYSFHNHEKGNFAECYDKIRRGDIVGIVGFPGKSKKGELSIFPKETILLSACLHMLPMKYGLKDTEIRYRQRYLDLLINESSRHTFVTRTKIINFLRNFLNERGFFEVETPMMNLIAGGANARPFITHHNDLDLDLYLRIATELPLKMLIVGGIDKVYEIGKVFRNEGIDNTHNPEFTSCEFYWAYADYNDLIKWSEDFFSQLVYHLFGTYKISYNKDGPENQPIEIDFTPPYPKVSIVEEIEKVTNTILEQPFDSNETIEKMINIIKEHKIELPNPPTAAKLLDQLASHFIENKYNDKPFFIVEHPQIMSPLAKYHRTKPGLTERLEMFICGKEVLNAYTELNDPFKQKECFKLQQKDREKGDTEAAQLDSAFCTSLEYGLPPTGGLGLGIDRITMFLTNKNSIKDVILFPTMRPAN

A: 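Protease assay of ClpP1P2, read by the AMC dye that it sets free. Target: ClpP1P2, Mycobacterium tuberculosis (UniProt P9WPC5 and UniProt P9WPC3). Compounds at 50 µM. Higher reads as stronger inhibition, judged from the few compounds that gave an IC50. Most other retested compounds had strongly negative values. Of about 69,000 compounds tested this way, about 10 (0.015%) reached 50% or more in at least one test.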
B: 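Enzyme assay of tryptophanyl-tRNA synthetase; the read-out is not stated. Target: Tryptophan-tRNA ligase, Mycobacterium tuberculosis (UniProt P9WFT3). Compounds at 10 µM. Higher most likely means stronger inhibition; the record gives no direction and few retests gave an IC50. Of about 65,000 compounds tested this way, about 64 (0.098%) reached 50% or more in at least one test.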
C: 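Polyketide synthase Pks13, Mycobacterium tuberculosis (UniProt I6X8D2). Enzyme assay of the thioesterase domain of polyketide synthase 13; the read-out is not stated. Concentration: 30 µM. Higher reads as stronger inhibition (inferred from which compounds were picked for retests). Of about 67,000 compounds tested this way, about 300 (0.46%) reached 50% or more in at least one test.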
D: 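Lysine-tRNA ligase, Plasmodium falciparum 3D7 (UniProt Q8IDJ8). Enzyme assay of the cytosolic lysyl-tRNA synthetase in 384-well plates, read by luminescence. Concentration: 30 µM. Direction is inferred from only a few compounds that gave an IC50; most scored high, so higher reads as stronger inhibition. Of about 69,000 compounds tested this way, about 49 (0.071%) reached 50% or more in at least one test.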

The filed quantity is “Percent Effect” (%).
The controls that fix the scale are not given in the record; negative values are as filed.
This is an unselected part of the compounds tested.
A dash means the value is not listed here; it may have been measured.

Compound	A	B	C	D
Cc1ccn(CCC(=O)NC(C)Cc2ccco2)n1 (stereo not shown)	-6.949	-5.937	-7.054	1.833
CCOC1CCCN(C(=O)c2[nH]nc(C(C)C)c2Br)C1 (stereo not shown)	-5.129	1.32	-3.895	-10.42
Cc1c[nH]c(C2CCCN(Cc3ccccc3C(=O)O)C2)n1 (stereo not shown)	-19.14	19.52	-15.91	-2.264
COCCOc1cccc(CNC(=O)CN2CCN(C)CC2C)c1 (stereo not shown)	2.077	6.87	-9.216	-1.445
CC(NC(=O)NCCCN(C)S(C)(=O)=O)c1ccc(C#N)cc1 (stereo not shown)	-14.65	-6.39	-18.8	-0.03364
CCn1c(CC2CCN(S(=O)(=O)Cc3ccccc3)CC2)nn(C)c1=O	7.469	-0.161	-18.98	0.3364
CS(=O)(=O)N1CCC(Oc2ccc(C(=O)NCC3CCC3)cc2Cl)CC1	1.356	-1.016	-2.263	1.908
CCn1ncc2c1CCCC2NCc1ccc2c(c1)CCO2 (stereo not shown)	-12.08	-5.879	-21.22	1.5
Cc1n[nH]cc1CNc1ccc2c(c1)CN(C(=O)OC(C)(C)C)CC2	-4.161	0.2486	-0.2443	1.379
CN(Cc1noc(C2CC2)n1)C1CCN(CCS(C)(=O)=O)C1 (stereo not shown)	-8.921	-0.3894	-10.82	1.279
Cc1ccc(C(=O)NCC(O)c2ccc(Cl)s2)c(=O)[nH]1 (stereo not shown)	-3.969	-1.718	-	3.4
CCCS(=O)(=O)N1CCN(CC(F)(F)F)CC1	-8.221	-1.498	-29.17	6.96
COCCN1CCCC(c2cncc(Oc3ccccc3OC)n2)C1 (stereo not shown)	-7.54	-5.02	2.966	3.555
CC(C)CC(O)C1CCN(C(=O)c2coc(CN3CCOCC3)c2)CC1 (stereo not shown)	-9.012	-1.051	6.986	1.688
COc1ccccc1CNc1cnn(CC(F)F)c1	7.113	-	7.105	2.985
COc1cc(-c2nc3c([nH]2)CCCNC3=O)ccc1O	-3.464	2.065	-5.47	-1.572
CC1CCCCN1C(=O)COc1nc(Cc2ccc(F)cc2)no1 (stereo not shown)	-1.132	-3.843	-15.9	5.392
Cn1cc(C(=O)N2CCCC(c3cnccn3)C2)cn1 (stereo not shown)	18.65	-	1.876	4.14
CNS(=O)(=O)c1cccc(C(C)NCc2ccc(F)c(F)c2)c1 (stereo not shown)	-6.445	3.685	-12.94	2.26
O=C([C@H]1C[C@H]2OCC[C@H]2N(CC2CCOCC2)C1)N1CCCC1	6.134	3.594	-21.21	0.832
Cc1nc(-c2cc(C(=O)O)co2)cs1	2.796	-9.417	-18.11	3.88
CCC(=O)N1CC[C@@H](c2ccc3ccccc3c2)[C@H](O)C1	-20.5	1.954	-10.71	3.582
Cc1ccc(N2N=C(C(=O)NCC3CC3)S(=O)(=O)c3cccnc32)cc1	3.36	0.1608	13.83	4.393
Cc1cnn(CC2CCCN2Cc2cn3ccsc3n2)c1 (stereo not shown)	-16.01	1.07	0.4338	-1.908
O=C(CN1CCCC(Cn2cncn2)C1)NCc1ccco1 (stereo not shown)	-8.149	1.657	-2.957	3.639
N#Cc1ccc(C(=O)O)nc1/C=C/c1cccc(Br)c1	-3.958	-5.676	-10.33	3.442
O=C(C1CCOCC1)N1CCC(OCc2cccnc2)CC1	-10.45	-2.101	-31.85	8.12
Cc1nn(C)c(C)c1C1CCCN1Cc1nc(C)c2ccccc2n1 (stereo not shown)	3.077	-1.657	-6.091	-1.669
CN(C)C[C@H]1C[C@H](CO)CN(C(=O)c2cc(S(N)(=O)=O)ccc2F)C1	-11.45	3.028	1.037	7.974
CC(C)=CCN1CCN(Cc2nc3ccccc3[nH]2)[C@H]2CS(=O)(=O)C[C@H]21	-9.626	-12.32	-27.54	4.624
CN1CCc2c(C#N)c(NCc3cccnc3)n3cnnc3c2C1	-5.071	4.431	18.31	9.793
CC(NCc1cccc(S(=O)(=O)N(C)C)c1)c1cccnc1 (stereo not shown)	-0.06621	-3.916	-14.18	0.6762
Cc1noc(C2CCCCN2C(=O)C2CCN(C(C)C)CC2)n1 (stereo not shown)	11.49	-2.113	-7.834	0.5369
CCc1nnsc1C(=O)N1CCCC(n2ccnc2C(C)C)C1 (stereo not shown)	-16.52	2.416	-	0.3704
CN1CCC(c2nnc3ccc(C(=O)NC4CCCC4)cn23)C1 (stereo not shown)	15	-2.596	-3.337	5.828
CCC(=O)NCC(=O)NCC(C)(C)c1cccc(Br)c1	-1.931	-1.001	50.39	5.433
CS(=O)(=O)N1CCCC(Cc2ccnc3ccncc23)CC1 (stereo not shown)	16.59	-	0.2551	10.07
CC(=O)N1Cc2nc(C(=O)NCCc3cccnc3)oc2C1	-10.2	-6.667	-11.82	-0.06966
CN(C)S(=O)(=O)N1CCCC1C(=O)N1CCSCC1 (stereo not shown)	6.607	1.12	1.563	-3.254
CCCC(NC(=O)c1cc(C)ccc1C)c1nnn[nH]1 (stereo not shown)	-24.1	2.664	-18.1	-0.9566
CN1C(=O)CC(c2ccncc2)C12CCN(c1ncccn1)CC2 (stereo not shown)	1.765	-5.478	-1.006	8.407

4 of the entries, repeated:

Result for CC(NCc1cccc(S(=O)(=O)N(C)C)c1)c1cccnc1 (stereo not shown) was A: -0.06621%; B: -3.916%; C: -14.18%; D: 0.6762%.
Result for CC(C)CC(O)C1CCN(C(=O)c2coc(CN3CCOCC3)c2)CC1 (stereo not shown) was A: -9.012%; B: -1.051%; C: 6.986%; D: 1.688%.
Result for CN1CCc2c(C#N)c(NCc3cccnc3)n3cnnc3c2C1 was A: -5.071%; B: 4.431%; C: 18.31%; D: 9.793%.
Result for CCn1ncc2c1CCCC2NCc1ccc2c(c1)CCO2 (stereo not shown) was A: -12.08%; B: -5.879%; C: -21.22%; D: 1.5%.

From ChEMBL document CHEMBL3988442, “University of Dundee, Small-Polar-MMV Screening Library” (2021).